The source of these data is US20090304615A1, “TRICYCLIC COMPOUNDS AS MELANOGENESIS MODIFIERS AND USES THEREOF” (priority 2007, published 2009).

In this test the test system is cultured murine melanocytes (melan-a). The test is described as follows: Melanin assay in cultured murine melanocytes (melan-a). Type of test: cell-based. Particulars: Mus musculus; for IC50: read-out: IC50 range (μM). As to the method:
The Spectrum Collection library consisting of 2000 drug compounds or natural products was screened to identify novel pigmentation inhibitors or stimulators in cultured murine melanocytes (melan-a). Compounds were dissolved in dimethylsulfoxide (DMSO) to a final concentration of 10 mM. Screening was performed with cultured melanocytes in 24-well plates followed by melanin assay (see below). […] DMSO was used as a negative control and the widely used depigmenting agent, hydroquinone, was used as a positive control on every plate. […] All compounds were added at the indicated final concentrations. Cells were harvested after 72 hours of incubation, and melanin assay was performed. For further test and mechanism of action studies, the compounds were purchased from either Sigma or Microsoure. These compounds were dissolved in dimethylsulfoxide (DMSO) to a final concentration of 10 mM, and were tested for their effect on melanin synthesis at the indicated final concentrations. For the primary and secondary screening, cells were harvested and dissolved in 200 μl of 2N NaOH in 20% DMSO at 70° C. A 180-μl aliquot of the resulting solution was measured for absorbance at 490 nm. […] The lysates were centrifuged at 14,000 rpm for 10 minutes at 4° C. BCA protein assay kit (Pierce) was used to measure the protein concentrations of the supernatants, and bovine serum albumin was used as a standard. […] A 180-μl aliquot of the resulting solution was measured for absorbance at 490 nm. The melanin contents were normalized to the total amount of protein.

Counter-ions that a name gives are not always drawn. Where only a bound is given, the exact number is not on record here.

In the case of `CN(C)CCC=C1c2ccccc2COc2ccccc21` (mixture of isomers) [compound 7, Doxepin hydrochloride], the 50% inhibitory concentration (IC50) (as a rule, the concentration needed to halve the response being measured) lay in the range of 2.5 to 5 µM.

In the case of `CN(C)CCCN1c2ccccc2CCc2ccc(Cl)cc21` [compound 4, Clomipramine hydrochloride], the IC50 was less than 1 µM. Besides, the inhibition at 1 µM (72 h, read-out: % Inh. @ 1 μM) worked out at 50%. For the same compound, the inhibition at 5 µM (72 h, read-out: % Inh. @ 5 μM) was determined as 64%.
